According to patent publication US20160113911A1, “METHODS AND COMPOSITIONS FOR THE TREATMENT OF CANCER” (THE GENERAL HOSPITAL CORPORATION, priority 2013, published 2016):

B1: L508R: KDM4D mutation (protein)
chain: METMKSKANCAQNPNCNIMIFHPTKEEFNDFDKYIAYMESQGAHRAGLAKIIPPKEWKARETYDNISEILIATPLQQVASGRAGVFTQYHKKKKAMTVGEYRHLANSKKYQTPPHQNFEDLERKYWKNRIYNSPIYGADISGSLFDENTKQWNLGHLGTIQDLLEKECGVVIEGVNTPYLYFGMWKTTFAWHTEDMDLYSINYLHLGEPKTWYVVPPEHGQRLERLARELFPGSSRGCGAFLRHKVALISPTVLKENGIPFNRITQEAGEFMVTFPYGYHAGFNHGFNCAEAINFATPRWIDYGKMASQCSCGEARVTFSMDAFVRILQPERYDLWKRGQDRAVVDHMEPRVPASQELSTQKEVQLPRRAALGLRQLPSHWARHSPWPMAARSGTRCHTLVCSSLPRRSAVSGTATQPRAAAVHSSKKPSSTPSSTPGPSAQIIHPSNGRRGRGRPPQKLRAQELTLQTPAKRPLLAGTTCTASGPEPEPLPEDGALMDKPVPLSPGRQHPVKASGCSWAPVP
B2: G47D: KDM4D mutation (protein)
chain: METMKSKANCAQNPNCNIMIFHPTKEEFNDFDKYIAYMESQGAHRADLAKIIPPKEWKARETYDNISEILIATPLQQVASGRAGVFTQYHKKKKAMTVGEYRHLANSKKYQTPPHQNFEDLERKYWKNRIYNSPIYGADISGSLFDENTKQWNLGHLGTIQDLLEKECGVVIEGVNTPYLYFGMWKTTFAWHTEDMDLYSINYLHLGEPKTWYVVPPEHGQRLERLARELFPGSSRGCGAFLRHKVALISPTVLKENGIPFNRITQEAGEFMVTFPYGYHAGFNHGFNCAEAINFATPRWIDYGKMASQCSCGEARVTFSMDAFVRILQPERYDLWKRGQDRAVVDHMEPRVPASQELSTQKEVQLPRRAALGLRQLPSHWARHSPWPMAARSGTRCHTLVCSSLPRRSAVSGTATQPRAAAVHSSKKPSSTPSSTPGPSAQIIHPSNGRRGRGRPPQKLRAQELTLQTPAKRPLLAGTTCTASGPEPEPLPEDGALMDKPVPLSPGLQHPVKASGCSWAPVP
B3: D64N: KDM4D mutation (protein)
chain: METMKSKANCAQNPNCNIMIFHPTKEEFNDFDKYIAYMESQGAHRAGLAKIIPPKEWKARETYNNISEILIATPLQQVASGRAGVFTQYHKKKKAMTVGEYRHLANSKKYQTPPHQNFEDLERKYWKNRIYNSPIYGADISGSLFDENTKQWNLGHLGTIQDLLEKECGVVIEGVNTPYLYFGMWKTTFAWHTEDMDLYSINYLHLGEPKTWYVVPPEHGQRLERLARELFPGSSRGCGAFLRHKVALISPTVLKENGIPFNRITQEAGEFMVTFPYGYHAGFNHGFNCAEAINFATPRWIDYGKMASQCSCGEARVTFSMDAFVRILQPERYDLWKRGQDRAVVDHMEPRVPASQELSTQKEVQLPRRAALGLRQLPSHWARHSPWPMAARSGTRCHTLVCSSLPRRSAVSGTATQPRAAAVHSSKKPSSTPSSTPGPSAQIIHPSNGRRGRGRPPQKLRAQELTLQTPAKRPLLAGTTCTASGPEPEPLPEDGALMDKPVPLSPGLQHPVKASGCSWAPVP
B4: R82W: KDM4D mutation (protein)
chain: METMKSKANCAQNPNCNIMIFHPTKEEFNDFDKYIAYMESQGAHRAGLAKIIPPKEWKARETYDNISEILIATPLQQVASGWAGVFTQYHKKKKAMTVGEYRHLANSKKYQTPPHQNFEDLERKYWKNRIYNSPIYGADISGSLFDENTKQWNLGHLGTIQDLLEKECGVVIEGVNTPYLYFGMWKTTFAWHTEDMDLYSINYLHLGEPKTWYVVPPEHGQRLERLARELFPGSSRGCGAFLRHKVALISPTVLKENGIPFNRITQEAGEFMVTFPYGYHAGFNHGFNCAEAINFATPRWIDYGKMASQCSCGEARVTFSMDAFVRILQPERYDLWKRGQDRAVVDHMEPRVPASQELSTQKEVQLPRRAALGLRQLPSHWARHSPWPMAARSGTRCHTLVCSSLPRRSAVSGTATQPRAAAVHSSKKPSSTPSSTPGPSAQIIHPSNGRRGRGRPPQKLRAQELTLQTPAKRPLLAGTTCTASGPEPEPLPEDGALMDKPVPLSPGLQHPVKASGCSWAPVP

Experiment: Subcellular localization of KDM4 variants (immunofluorescence)
Assay type: cell-based
Settings: KDM4D mutations
In the case of B1, the Localization is reported as “+++ (+++ indicates >80% nuclear)”.
With B2 the Localization was “− (− indicates 20-39% nuclear)”.
For B3, the Localization was “− (− indicates 20-39% nuclear)”.
With B4 the Localization was “− (− indicates 20-39% nuclear)”.
